Assay results published in EP2014281A1, “Use of inhibitors of sirtuins and/or ampk for the preparation of a medicament for the treatment of polyalanine diseases” (INSTITUT NATIONAL DE LA SANTE ET DE LA RECHERCHE MEDICALE …, priority 2007, dated 2009).

Tested on: PABPN1
Assay: Transgene expression by quantitative RT-PCR
Assay type: in vivo, C. elegans
Settings: PABPN1-A13 animals, vs untreated

Compound | Transgene expression level (ΔCt) (33 µM drug) | Transgene expression level (ΔCt) (3.7µM drug)
Oc1ccc(C=Cc2cc(O)cc(O)c2)cc1 [resveratrol] | 5.2 ± 0.2 | –
CC(NC(=O)c1ccccc1/N=C/c1c(O)ccc2ccccc12)c1ccccc1 (stereo not shown) [sirtinol, 2-[(2-Hydroxynaphthalen-1-yl-methylene)amino]-N-(1-phenethyl)benzamide] | – | 5.2 ± 0.5
CCCC(=O)[O-].[Na+] [sodium butyrate] | 3.6 ± 0.1 | –
O=C1CCc2c(ccc3ccccc23)O1 [splitomicin, 1,2-Dihydro-3H-naphtho[2,1-b]pyran-3-one] | 4.0 ± 0.3 | –
